Data: the supplement of paper PMC5949888
Most values lie at the floor of the assay. Slopes are relative: functional sequences can read slightly below zero.

Tested on: Saccharomyces cerevisiae PS128 hsf1 delta, HSF1(1-493) fusion
Assay: growth estimate (transactivation domain function in HSF1 fusion, heat-shock survival) (a.u. (slope of normalised read count over time)); higher = stronger growth at 37°C, i.e. more transactivation activity
Conditions: library: random library

Substance | growth estimate
LRYSMTA | < -0.25
RTG | < -0.253
MARVNSLL | < -0.25
VRVHFGPIPDIKQASKKHPE | < -0.25
APAWFVRSEFAASKSLAFRV | < -0.25
WWLSDRLMFCF | < -0.25
RPSVPSGNPDRADKHE | < -0.25
STKRLLRPFTFPSLTSYCPT | < -0.25
GRVRALQGHIGVRLHPYIAN | < -0.25
SSTRDGFNG | < -0.25
LLRDGNRLPYDPMRWRLTTT | < -0.25
CWVGSSVPECL | < -0.25
FHQGLRKCSLMGKRWECGRA | < -0.25
GSFPIRQSSVLDRKALSVHG | < -0.25
GGNTCGAISSRRH | < -0.25
SRHRDQYMVLTGGQDAQAIG | -0.227
RGSNQIALIFSHQGANHTRY | < -0.25
TRYGQKYRQ | -0.241
VRRKVNHRLASQFIY | < -0.25
RVSCFAEDELVEEPMHPATC | < -0.25
RGDLGASEGQSNRDAYAIAP | < -0.25
LLVWSS | < -0.25
RFVISE | < -0.25
TASVGASWSLRDRTWGTNEL | < -0.25
QQSTRVHGTIATRTTITQS | < -0.25
TQFRWRLANNAPLDLRLSPR | < -0.25

Substance | growth estimate
WAK | < -0.25
GLW | < -0.25
GELTTAL | < -0.25
IATL | < -0.25
CLHLTIGASLHPKLSREDRS | < -0.25
VVSVL | < -0.25
VNKYGMHTSRQPIYTTVLTP | < -0.25
ESLSVN | < -0.25
QREHSVIH | < -0.25
CGHGKIFSVGAHEYWGSLSP | -0.187
VGGTR | < -0.25
AFLGCDQVGCLVYVTRTLRR | < -0.25
SGPEVSRLLSM | -0.25
RGARTQRLPRMHRRLVEMLR | < -0.25
SRDRVELGFHCSHKLSDLRL | < -0.25
GKRWRETPTLVGLRMYTKLR | < -0.25
YGANTFHDSTQHFSSQWARS | < -0.25
KCLCNET | < -0.25
PPVRARAIVALVCSERTAPA | < -0.25
VVTSAYAASASC | < -0.25
QSKYYDVVGHHLGHRIG | < -0.25
ANSRTGI | < -0.25
KRQAKFIYT | < -0.25
FGGHTRPPYRRADANSG | < -0.25
YTSESHPTFVGDRKSERRPR | < -0.25
STFSPPGIREWQNYHLVPGS | < -0.25

Substance | growth estimate
TLHRATLYMRDPSCYRRDIT | < -0.25
FPDSTAWTAWWVGQYRTKHA | -0.25
GRARAVAQIGVCTLLDGTDA | < -0.25
DRFYIASC | < -0.25
RRPRGLGQEYFSSGVGSLSA | < -0.25
VSKPLISTDRKLYVKLSAWR | < -0.25
GTLGGYKSRARRSQYGTTGI | < -0.25
DRL | < -0.25
YARVS | < -0.25
PIRSPVVLVMEQGLDMTGLS | < -0.25
YGSDRTICALWLIGFKRVRL | < -0.25
GMRGERIGATLSGQI | < -0.25
PVLITSENVFPPYTFPTCAD | -0.241
RLKRAWICAVLVRPLCPSAK | < -0.25
DSTS | < -0.25
RPLSRTRTVGKSKRGGRKSR | < -0.25
LWGGER | < -0.25
GDTRCRRRTAL | < -0.25
LTSALVGRGETGLFFHLKRV | < -0.25
DCRD | -0.168
ISGRKLVDGCPHSRWLGRDG | < -0.25
AKLFTS | < -0.25
IVFTWGFQVCLEARGQTDTD | < -0.25
KDFVF | < -0.25
DCQAGSLTLA | < -0.25
QMLRLGGGVRLKILRFSQ | < -0.25

Substance | growth estimate
TFRCATRLFYSRAASIKHDG | < -0.25
RATDELVAIRAGTRSWDCWV | < -0.25
GRYRPFGHRQLFPVAC | < -0.25
GLVGLT | < -0.25
YMLSTSRIYVKRHPSVRN | < -0.25
RRTRKHGCFRLRSLAVFTSS | < -0.25
ITVSTVS | < -0.25
ASVIHPAGLLSQLGYLDRIH | < -0.25
RYKARGIHERAENVIPMGLR | < -0.25
LKLISIFVI | < -0.25
VPNILTGHWDLQPKITSC | < -0.25
RVIGPKTRTVTTGWEIVTKH | < -0.25
LKSRKTTLLGRTVKESRVTP | < -0.25
IGPGLDRPNAPGI | < -0.25
MTAIHQRGYAPVLKHNKRPG | < -0.25
LGSKGVR | < -0.25
IWALCRQNISSHNCTL | < -0.25
SFLSQFQDLTQFSMWRRGAR | < -0.25
CGCAHERCATTEGVANQRIV | < -0.25
VRTFVKFGRWPCWFSLCVWG | < -0.25
VFLTISFTN | < -0.25
TFNRSNETTRNP | < -0.25
GPFA | < -0.25
HEARRQAMREGI | < -0.25
PCA | < -0.25
CNASYTWIWAAL | < -0.25

Substance | growth estimate
EAYLNARLDVRRVT | < -0.25
CIVLAARLPLSHFLSDPRIA | < -0.25
SLRFMERCLSRSYRFQG | < -0.25
CNERSGNCNAGFL | < -0.25
STLMRTVECSHRYA | < -0.25
WSLSARVMKS | < -0.25
FQGGVLRLVFQALTGLSHTS | < -0.25
ALWAAKPLFHAHIPS | < -0.25
FKPLGQSHERMIFRR | < -0.25
LDRQNRPDDFIAQQPDKHRK | < -0.25
MCLHVIQRRGVDQAVP | < -0.25
VVVDALG | < -0.25
YKCLCERLLQG | < -0.25
TRADQEQRSLFGVLE | < -0.25
EGTLLAVPNTMCLLLMEVEL | < -0.25
FGVLSAKLLWFVPYSEIVLG | < -0.25
ANE | < -0.25
VIG | < -0.25
RLDRPGGVFSIAKLRAAERT | < -0.25
RPGGPDAGHRILILDC | < -0.25
LTRT | < -0.25
VMG | < -0.25
GRVGEVRTVHMS | < -0.25
HGPQAFPVPCCLDQTTGCAG | < -0.25
LWECSEIGIVDG | < -0.25
VSGTVGTDSRNYRLRDCC | < -0.25

Three records drawn at random from the list so far:
Substance | growth estimate
VSGTVGTDSRNYRLRDCC | < -0.25
STLMRTVECSHRYA | < -0.25
LTRT | < -0.25

Further records

Substance | growth estimate
VGAVN | < -0.25
DAQMGLLVPSRQGKIGSFRE | < -0.25
DRKIAGSPLTRTCKAGYV | < -0.25
CYCYVVSR | < -0.25
EQDG | -0.111
SSAIL | < -0.25
YSTIATNQYAKPY | < -0.25
YAKPRPVTGDLYNSV | < -0.25
ARVHGLARPERPTQNSLSRG | < -0.25
CALDHTRPEEFGRHLRVVPF | -0.245
KLRFTRP | < -0.25
IRVLGENGRSLFDDRPLRPY | < -0.25
DRVTGVLL | < -0.25
WVCGCVDGRLKI | < -0.25
YVRC | < -0.25
SVEATE | < -0.25
DQEGQVGSKV | < -0.25
ALNDKLIGVVESGEIIHTRV | < -0.25
SALSWSKFASTAAVRLNYID | < -0.25
WCPGQPYSCSGSVRLCLSLA | < -0.25
TQEIIGCY | < -0.25
RYGTVSVAGSDVGKTKARNS | < -0.25
RTCRTCR | < -0.25
PTTTRVGVVCCPPKGE | < -0.25
CPDRPYQALPTRTVVGANGS | < -0.25
DAPTVWPLSGRV | < -0.25

Looked up above:
Entry of VVTSAYAASASC under growth estimate: < -0.25
Entry of MTAIHQRGYAPVLKHNKRPG under growth estimate: < -0.25
Entry of GSFPIRQSSVLDRKALSVHG under growth estimate: < -0.25

The results go on:

Substance | growth estimate
RSYARSRWRMGKYLSERAVP | < -0.25
VWVKGAWVPHGG | < -0.25
ECTLS | < -0.25
IHFMLDRESHGTRF | < -0.25
ADEDTLRLIVGVE | -0.231
HMNVLEATCIAPPGHLDNRR | < -0.25
SAGSGAYGTVGSQGSYILTV | < -0.25
ASFISSGSPSAAECGACRSA | < -0.25
FPFSASLRFIIVEMRGNDAF | < -0.25
QAT | < -0.25
ATTRTALYYDR | -0.246
RCRRDASSSRVTSWETGIGG | < -0.25
LFEACRILYG | < -0.25
LSCQEPAI | < -0.25
GYGLAQRRGSLKNPGSQHDT | < -0.25
YPQEGLKGVVLRICEEVCPP | < -0.25
TYDGVSRVGTQTSTLWKIER | < -0.25
AVRMTNSRELNPKRRQRI | < -0.25
PEHCPRQSFSLELVSSPYGR | < -0.25
TTLVQRSAGSVWPDGGKPPS | < -0.25
DLRN | < -0.25
KSPYKISCQPALCGALWVRR | < -0.25
LHVHPF | < -0.25
PRPL | < -0.25
SESDDQVGKYGSEVWLGYAT | -0.229
CPPDRMAMLHSIWRHTGFEA | < -0.25

Substance | growth estimate
GVITVALYGRVRRPTVMGK | < -0.25
PFITCKIWWVHWCPTLSSRS | < -0.25
SSILCFDDACVRPLVAS | < -0.25
HNELYAWSGIAWN | < -0.25
NQIEFFTRRLA | < -0.25
YLSN | < -0.25
HVGSICHITV | < -0.25
MAVPPSDVTDRVR | < -0.25
RSWHPSGDKTRVTTLVYPPA | < -0.25
KTDFSPK | < -0.25
RYRVGLPIRYSADAIGRPDV | < -0.25
AIRAGNQALLC | < -0.25
PGQLLTIRSMPESWAGEFSR | < -0.25
QGS | < -0.25
LSLILTRAMKVKSWDMNIVL | < -0.25
ELVCRLGPPRRGRRPG | < -0.25
MITGQIPRCVCGRVGRARIA | < -0.25
LSIRENASSVGYACERVSRG | < -0.25
GFRPWN | < -0.25
